For two substances, binding results are on record in publication PMC8514460.

One assay deals with T1, FLAG-ERLIN1 (UniProt O75477).
T1 sequence: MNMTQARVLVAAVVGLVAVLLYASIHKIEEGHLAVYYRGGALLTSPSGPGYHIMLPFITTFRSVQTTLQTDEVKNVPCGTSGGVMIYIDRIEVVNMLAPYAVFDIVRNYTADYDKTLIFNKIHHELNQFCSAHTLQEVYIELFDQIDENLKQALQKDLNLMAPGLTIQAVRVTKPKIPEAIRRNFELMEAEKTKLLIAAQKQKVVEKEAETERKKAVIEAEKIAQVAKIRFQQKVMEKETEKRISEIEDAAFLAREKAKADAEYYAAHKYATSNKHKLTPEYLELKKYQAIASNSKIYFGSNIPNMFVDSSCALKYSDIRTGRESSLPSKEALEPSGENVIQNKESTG
The assay is described as follows: co-IP; FLAG-tagged bait and tagged prey co-expressed in HEK 293T cells; lysis in 1% deoxy Big CHAP or 1% Triton X-100 at 4 °C; M2 FLAG beads 2 h at 4 °C; eluted with 3xFLAG peptide; immunoblot (in Fig. 6e from Beclin1 siRNA cells, eluate then run on a sucrose gradient). A general note: Immunoblotting shows a protein as a band on a membrane.

Another assay concerns the target T2, FLAG-PGRMC2 (UniProt O15173).
T2 sequence: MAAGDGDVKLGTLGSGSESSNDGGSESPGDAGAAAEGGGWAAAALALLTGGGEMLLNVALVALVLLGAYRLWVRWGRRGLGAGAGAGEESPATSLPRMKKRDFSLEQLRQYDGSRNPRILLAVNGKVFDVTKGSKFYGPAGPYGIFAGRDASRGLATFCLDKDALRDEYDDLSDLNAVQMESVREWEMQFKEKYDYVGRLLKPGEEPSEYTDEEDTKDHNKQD
The description is as above.

No constants are given. Whether binding was seen depends on the method and setting. In cells and extracts the contact can be indirect. Where a sequence is shown, tags or fusion partners need not be part of it.

For the substance C28F-POMC-Myc, the binding entry in the assay with FLAG-ERLIN1 and with FLAG-PGRMC2 was “no binding” throughout. For the substance “L105(A16)P-Myc MIDY mutant proinsulin (human)”, the binding result with FLAG-ERLIN1 was “no binding”.
